Measured values published in the supplement of paper PMC5949888.
Most values lie at the floor of the assay. Slopes are relative: functional sequences can read slightly below zero.

Tested on: Saccharomyces cerevisiae PS128 hsf1 delta, HSF1(1-493) fusion
Test: growth estimate (transactivation domain function in HSF1 fusion, heat-shock survival) (a.u. (slope of normalised read count over time)); higher = stronger growth at 37°C, i.e. more transactivation activity
Conditions: library: random library

Substance	growth estimate
QEVILGSPGVSSCKV	< -0.25
LVQMGKRSTSVHQSYGPQLR	< -0.25
LHRRLDCRLAAGHRSAGW	< -0.25
AGCTFRGT	< -0.25
NYGPAADVLVKIGPNLG	< -0.25
GVLSIQLIIL	< -0.25
LGLHKSSSVEDKIVLRKCTS	< -0.25
AFY	< -0.25
IVGDLVPFDCNG	< -0.25
CLGLVRYYSLSIRHCRSKTT	< -0.25
VIFMRTATSQAMGPKLSVDP	< -0.25
QATKCGG	< -0.25
MTPCLRGKGRVRTMMSGRSM	< -0.25
ITLMPEKDDS	< -0.25
RSTRKVCDRPTYVRWLASEA	< -0.25
GLGRSRSQTIIPPVKMGAVT	< -0.25
YIRNQEA	< -0.25
IPRKCVRGRCEVLDERTVAA	0.0112
STERTSMIVTLIYHGFLAEN	< -0.25
RILALDCPKGTMCTDLTRNV	< -0.25
HVRAPGCLLSARKSPQSTQA	< -0.25
PLFYPGRQSAR	< -0.25
SGPVRSFAIAHQRQVH	< -0.25

Substance	growth estimate
RSGPCADPE	< -0.25
HAVNRLDQTHL	< -0.25
NLRAV	< -0.25
PTVELCRLLP	< -0.25
RLRAWEGNVEKPTFTAGGRP	< -0.25
DRCIRVL	< -0.25
RSFGYFGCLDLWYLRGQTGS	< -0.25
IGPTHIQRTRYAVSPSRDVG	< -0.25
SLTGPFVSIYPMIGPSDANS	< -0.25
VDRSTSTQNVVSMFSSHL	< -0.25
AVVGYRVLTPSRGNLGANVY	< -0.25
GVGVGARDRVPCALGLSWRE	< -0.25
TMKCGLRRGMRRQHVRNRTR	< -0.25
FWEGFVLPRFCCRPSRWAKV	< -0.25
QGIGMKTAHPL	< -0.25
MGTMH	< -0.25
RNQDPASYILRWGNPVLVED	< -0.25
DCDPWLRAMDSYGSWQSTSS	< -0.25
LQKSTGQTAGHILALCCAGR	< -0.25
PMKVTAGPRCLGNGMLISIV	< -0.25
AYSDVPFRRHQFSIRSYGCK	< -0.25
HDGAVRQSFRVRR	< -0.25
LGCRETVPAQTRTLASPVTE	< -0.25

Substance	growth estimate
GGFEENRQGLGLNAM	< -0.25
GSHV	< -0.25
LGIVSYARANEKACLSQVNM	< -0.25
GQPL	< -0.25
GASCLFLRQQPHICLVLDYP	< -0.25
CRG	< -0.25
QDLDVGSFKHYSYSLFQMRR	< -0.25
LCDVAGNTSHTLEQRRGERG	< -0.25
MISRQFV	< -0.25
PSQGCLYKTLFPQMGLDMMV	< -0.25
PGSSRLVAVHGHRFERLVRA	< -0.25
IMRARRSRFQEI	-0.246
PRPRCKCFIRAAGLGNLRGA	< -0.25
IGLGRRVPELPGS	< -0.25
RPLLSMVGGTAMIVLPVAQS	< -0.25
IRSRRSRVCSASEVWNRNRP	< -0.25
RLHS	< -0.25
HVARKECPDSEAWALMRKSV	< -0.25
GEAS	< -0.25
FTNVSD	< -0.25
RHRDLGTLNSGGEYDKVHFR	< -0.25
QGDSRPPSLPVRVVLV	< -0.25
LLRNPAHGFFPTQTDANRGR	< -0.25

Substance	growth estimate
CVVLIAFQINPLGVVFVLPA	< -0.25
GKL	< -0.25
WVLVTHEGSKS	< -0.25
VNHKNPLGHSNECTCDEQLS	0.0245
SHRCV	< -0.25
HAPCGQLSFRRQDAVPLKFA	-0.117
TCTAVPVCL	< -0.25
NSTVTRDPVAGVSFHRSSIT	< -0.25
NNRLGPNGSAATKWTG	< -0.25
RSIKILCCKLQW	< -0.25
NMQEHIPKWHDREFLLGGIF	0.0112
ASLELPVRSGTKPMIC	< -0.25
QKAGGSSSAIRRNAQGPPTS	< -0.25
RHRSLDSSA	< -0.25
LREFVVPRRSRNSKVSLQKS	< -0.25
LRIERVQGGDVRVRERYDHT	< -0.25
VRRGAVKFATLGLTVKDEEV	< -0.25
SSVQVYLVRASGHAPG	-0.246
HTGITETCGSRWIPWISAHR	< -0.25
GVNVFRINVK	< -0.25
LPLIGEFRTLQELIDRSRNY	< -0.25
AMTLALLGVFGKGCKRYQYE	< -0.25
ARFPLPVNRIGGRGP	-0.129

Substance	growth estimate
WTGRSLVFWVGHSGVQASES	< -0.25
TTRLPGKHSI	< -0.25
CLCAQGLFSI	< -0.25
LQNTRSWKRHDIVFVLKPST	< -0.25
RSLRIGCGTKRATQKARLRS	< -0.25
HLDGFVLVPRLVAVRDDMAP	< -0.25
ILFRLSGLV	< -0.25
GAIGSMQANAAFGVALYSPL	< -0.25
RVERFRLMSAKRRMCYFQSV	< -0.25
SLLMRVTTIPAQLAQRTRSF	< -0.25
IMVAHPVRKLLRPVSESLDL	< -0.25
EVDIETNGHRVAGWSPRDGV	< -0.25
MSPSLSVKKATYTAAYWSIP	< -0.25
VLLHRQGMHRAATKRGFGVR	< -0.25
GRIRLIVYRGKLKHCLRYSH	< -0.25
RGNICSLNV	< -0.25
KSK	< -0.25
LHDVLIRPLWAPIL	< -0.25
ADKFNFPGAYGEDMGSQHKA	< -0.25
SAAPCLGRDHLVPNPNGGLS	< -0.25
GRTLHGQLDLYFVAC	< -0.25
FQPK	< -0.25
FVNLLWLATSTRRVKFLYRL	< -0.25

Substance	growth estimate
PVCARVWVNVSPQMGT	-0.112
ADGTRNSIAGALSAIP	< -0.25
RNEF	< -0.25
SYRP	< -0.25
RVE	< -0.25
NVSPATRRDLKPLFMVGVIH	< -0.25
PEGLIRLRFSEGASRTQPTC	< -0.25
KAPMAPFK	< -0.25
VSEMR	< -0.25
SKYPWPGW	< -0.25
GSPKEGCYTGVSG	< -0.25
VQA	< -0.25
RSRSRGAVSSVYAVVTAGVQ	< -0.25
VALTGPLNSSVSTAASRAAA	< -0.25
SPYA	< -0.25
QLRVSTGESMMILHSAAELQ	< -0.25
PQRLGSRGRVMWVDM	< -0.25
GYSTLYLSEATPGNPASLDY	< -0.25
RYILTRPACGATHAAEA	< -0.25
LISTAEVEPIYRVKHFSSAP	< -0.25
HSRAFSACIQIA	< -0.25
LVSTP	< -0.25
SVGSKSARFFCSAVIANHRF	< -0.25

6 entries from above, with bars between the fields:
Substance | growth estimate
GYSTLYLSEATPGNPASLDY | < -0.25
RYILTRPACGATHAAEA | < -0.25
LISTAEVEPIYRVKHFSSAP | < -0.25
HSRAFSACIQIA | < -0.25
LVSTP | < -0.25
SVGSKSARFFCSAVIANHRF | < -0.25

The list goes on:

Substance	growth estimate
TSKDPTLP	< -0.25
PSCIYVQTPPPSRATAYLYS	< -0.25
YSTATPRANGGVSSWQPVLE	< -0.25
GINDLLADRARAVMYRLCIC	< -0.25
HAKRLLYSR	< -0.25
FIG	< -0.25
LVNGVFRVSWTRPYQSLSVP	< -0.25
QNQL	< -0.25
ALDLNP	< -0.25
ASGTMHRSLSQRLMFLHLRG	< -0.25
TRVVRDWDVQCTVIPRTELL	< -0.25
QDVQRRCRT	< -0.25
SSVPVRTRCTDKSTTKKRKL	< -0.25
VSSEAAFPSGP	< -0.25
PEGPRWHLSDFQGA	< -0.25
AAKVRSRAPLIGRGPLHTRF	-0.245
RGSSRMG	< -0.25
NHSQDGLSVHV	< -0.25
LQIFLVKKSRHKILNRVGKG	< -0.25
